Source: PubChem BioAssay AID662 (National Center for Advancing Translational Sciences (NCATS), 2007)
This is one part of the list. The main result of the screen is listed elsewhere. These columns were measured beside it and carry no call. The list favours compounds with an active or inconclusive main result. The note in brackets gives the kind of curve behind each potency; many fits are weak.

Experiment: Cell signaling CRE-BLA (Fsk stim)
Settings: CHO CRE-bla reporter (cAMP response element driving beta-lactamase), forskolin EC10, beta-lactamase ratio; measured here: 460 nm blue channel
Outline: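 Modulation of forskolin signalling: compounds in titration series added with EC10 NKH 477 to CHO cells carrying a CRE-driven beta-lactamase reporter, 3 h, 37C. CCF4 FRET ratio (460/530 nm, ex 405 nm) gives %activity and AC50.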
With `CCOC(=O)Nc1cc(C(=O)OC)cc(C(=O)OC)c1` the AC50 was 25.1 µM [rising, single point].
For `COC(=O)c1c(-c2cccs2)csc1NC(=O)CN1CCOCC1`, the AC50 was 2 µM [rising, full curve].
For `Cc1ccc(-n2nc(-c3ccc(N)cc3)cc2N)cc1`, the AC50 was 25.1 µM [falling, single point].
With `Cc1onc(-c2ccccc2Cl)c1C(=O)Nc1ccc(OCC(=O)N2CCOCC2)cc1` the AC50 was 0.398 µM [rising, partial curve].
In the case of `COc1ccc(OC)c(NC(=O)COc2ccc(S(=O)(=O)NC(C)C)cc2)c1`, the AC50 is reported as 10 µM [rising, single point].
With `O=C(NCc1ccco1)Nc1ccc2nsnc2c1` the AC50 was 10 µM [falling, partial curve].
For `CC(C)(C)NC(=O)CSc1nnc(CN2CCCCCC2=O)n1-c1ccccn1`, the AC50 was 5.01 µM [falling, single point].
For `Cc1c(C(=O)NCc2ccc3c(c2)OCO3)oc2ccccc12`, the AC50 was 25.1 µM [falling, single point].
For `O=C(Cc1ccccc1)Nc1ccc2oc(-c3cccnc3)nc2c1`, the AC50 was 12.6 µM [rising, partial curve].
With `COc1ccccc1CCn1c(=O)cnc2cncnc21` the AC50 was 25.1 µM [rising, single point].
With `Cc1ccc2nc(NCc3ccco3)c(C=NCc3ccco3)c(=O)n2c1` the AC50 was 12.6 µM [rising, partial curve].
With `Cc1cc(C)n2cc(CSC3=NCCS3)nc2n1` the AC50 was 3.16 µM [falling, partial curve].
In the case of `c1cc2c(cc1Nc1nc(-c3ccc4c(c3)OCO4)cs1)OCCO2`, the AC50 is reported as 25.1 µM [falling, single point].
With `C=CCSc1nnc2nc3c(nn12)c1cc(C)ccc1n3CC=C` the AC50 was 12.6 µM [rising, partial curve].
With `CC1=CC(=C(C#N)c2nc3ccccc3s2)C=C(C)N1Cc1ccco1` the AC50 was 3.98 µM [rising, full curve].
With `CCCCOCCCNC(=O)c1ccc2c(c1)OCO2` the AC50 was 0.00316 µM [falling, full curve].
With `Cc1nnc(SCCn2c(N3CCCC(C)C3)nc3c2c(=O)[nH]c(=O)n3C)s1` (centres undefined) the AC50 was 10 µM [rising, single point].
In the case of `COc1cc2c(cc1NC(=O)CC1SC(N3CCCC3)=NC1=O)oc1ccccc12` (centres undefined), the AC50 is reported as 20 µM [falling, single point].
In the case of `COc1ccc(C(=O)NC2=C(C#N)CCC2)cc1OC`, the AC50 is reported as 7.94 µM [rising, partial curve].
With `CC(C)(C)NC(=O)Cn1cc(C#N)c2cc(Br)ccc21` the AC50 was 3.16 µM [falling, full curve].
With `O=C(NCCC1=CCCCC1)N[C@@H](Cc1ccccc1)C(=O)O` the AC50 was 10 µM [falling, partial curve].
In the case of `Cc1ccc(-c2nnn(CC(=O)N(Cc3cccs3)C(C(=O)NC(C)(C)C)c3ccc(C)o3)n2)o1` (centres undefined), the AC50 is reported as 25.1 µM [falling, single point].
For `CN(C)c1ncc2nc(-c3cn(C)c4ccccc34)c(=O)n(C[C@H]3CCCO3)c2n1`, the AC50 was 5.01 µM [rising, partial curve].
In the case of `O=C1Nc2ccc(S(=O)(=O)NCCC3=CCCCC3)c3cccc1c23`, the AC50 is reported as 15.8 µM [rising, single point].
For `CCOc1cccc(C=Nc2cc(C)cc(C)c2O)c1O`, the AC50 was 7.94 µM [falling, partial curve].
With `COc1ccc(OC)c(-c2cc(C(=O)N3CCc4ccccc4C3)no2)c1` the AC50 was 3.16 µM [rising, partial curve].
In the case of `COCCn1c(=O)c(-c2cccs2)nc2cnc(Oc3ccc(OC)cc3)nc21`, the AC50 is reported as 10 µM [rising, partial curve].
With `Cc1cnc(NC(=O)C(C)N2C(=O)C3CC=CCC3C2=O)s1` (centres undefined) the AC50 was 0.316 µM [falling, full curve].
In the case of `CCCCc1c2ccccc2nc2[nH]c3ccccc3c12`, the AC50 is reported as 5.01 µM [rising, partial curve].
For `CN1CCN(c2ccc(Cl)cc2NC(=O)c2ccc(S(=O)(=O)N3CCCCCC3)cc2)CC1`, the AC50 was 0.794 µM [rising, full curve].
With `C[C@@]12C(=O)OC(=O)[C@@]1(C)[C@@H]1CC[C@@H]2O1` the AC50 was 15.8 µM [falling, partial curve, poor fit].
For `COc1ccc2c(c1)CCc1cc(C(=O)N3CCN(c4ccc(N5CCOCC5)nn4)CC3)sc1-2`, the AC50 was 3.16 µM [rising, partial curve].
With `CCCOc1ccc(NC(N)=O)cc1OCCC` the AC50 was 15.8 µM [falling, partial curve, poor fit].
In the case of `COCCn1c(=O)c(CCc2ccccc2)nc2cnc(N3CCNCC3)nc21`, the AC50 is reported as 12.6 µM [rising, partial curve].
For `CN1CCN(c2ncc3nc(-c4cccs4)c(=O)n(-c4ccccc4)c3n2)CC1`, the AC50 was 12.6 µM [rising, partial curve].
For `CC1CCCC(C)N1C(=O)c1cc(-c2ccc(Cl)c(Cl)c2)on1` (centres undefined), the AC50 was 7.94 µM [rising, partial curve].
In the case of `CCCOc1ccc2ccccc2c1/C=N/n1cnnc1`, the AC50 is reported as 0.398 µM [rising, full curve].
With `CCCCCn1c(N2CCN(Cc3ccccc3)CC2)nc2c1c(=O)[nH]c(=O)n2C` the AC50 was 15.8 µM [rising, partial curve, poor fit].
With `Cc1cc(N2CCN(S(=O)(=O)c3ccc4c(c3)OCCO4)CC2)n2ncnc2n1` the AC50 was 5.01 µM [rising, partial curve].
With `O=c1c(-c2cccc(Cl)c2)nc2cncnc2n1Cc1ccccc1` the AC50 was 12.6 µM [rising, partial curve].
With `O=C(O)c1cc2cc(F)ccc2[nH]1` the AC50 was 3.98 µM [falling, full curve].
In the case of `CCCCCCN1CC(O)=C(c2nc3ccccc3[nH]2)C1=N`, the AC50 is reported as 3.98 µM [falling, single point].
With `O=C(c1ccco1)N1CCN(C(c2ccccc2Cl)c2nnnn2Cc2cccs2)CC1` (centres undefined) the AC50 was 1.58 µM [falling, partial curve].
For `COc1ccc(C2=Nn3c(nnc3-c3cccnc3)SC2)cc1`, the AC50 was 1 µM [rising, full curve].
With `CCc1nnc(NC(=O)C(C)N2C(=O)C3C4C=CC(C4)C3C2=O)s1` (centres undefined) the AC50 was 0.0398 µM [falling, full curve].
With `O=C(Cn1c(NCCCO)nc2ccccc21)c1cccc(Br)c1` the AC50 was 15.8 µM [falling, partial curve].
For `Cn1c(SCC(=O)Nc2ccc3cn[nH]c3c2)nnc1-c1cnccn1`, the AC50 was 0.01 µM [falling, full curve, poor fit].
For `CC(=O)N[C@H](c1ccccc1)[C@@]1(C)C[C@@H]1[C@@H](C)C(=O)Nc1ccc2ccccc2c1`, the AC50 was 3.98 µM [falling, partial curve].
For `CCCn1c(SCC(=O)N2c3ccccc3Sc3ccccc32)nc2c1c(=O)n(C)c(=O)n2C`, the AC50 was 3.16 µM [rising, partial curve].
With `O=C(Nc1ccc(Cl)c(C(F)(F)F)c1)N1CCCC(O)C1` (centres undefined) the AC50 was 10 µM [falling, partial curve, poor fit].
For `Cn1c(C(=O)NC2CCCCCC2)cc2c(=O)n(C)c3ccccc3c21`, the AC50 was 2.51 µM [rising, full curve].
For `CCCCn1nc(NC(=O)c2cccs2)c2cc3cc(OC)ccc3nc21`, the AC50 was 10 µM [rising, partial curve].
For `CCOC(=O)Cc1nnc(NC(=O)CSc2nnc3c4ccccc4n(C(C)C)c3n2)s1`, the AC50 was 10 µM [rising, partial curve].
For `NC(=O)c1cccn1Cc1ccccc1Cl`, the AC50 was 5.01 µM [falling, single point].
For `O=c1c2ccccc2nnn1Cc1nnc(-c2ccccc2Br)o1`, the AC50 was 12.6 µM [rising, single point].
In the case of `CCCCN(CCCC)C(=O)CSc1nnc(-c2cc(OC)c(OC)c(OC)c2)o1`, the AC50 is reported as 12.6 µM [rising, partial curve].
With `COc1ccc2c(Cl)c(-c3nnc4n3CCCCC4)sc2c1` the AC50 was 0.501 µM [falling, full curve].
In the case of `O=C(CCN1CCC(c2ccccc2)C1)c1cccs1` (centres undefined), the AC50 is reported as 12.6 µM [falling, single point].
With `O=C(Nc1ccc(OC(=O)c2ccncc2)cc1)c1ccncc1` the AC50 was 0.0316 µM [falling, partial curve].
In the case of `Cn1c(=O)c(-c2cc(F)cc(F)c2)nc2cncnc21`, the AC50 is reported as 12.6 µM [rising, partial curve].
For `CCCCCCCNS(=O)(=O)c1cccc2c(Cl)cccc12`, the AC50 was 31.6 µM [falling, single point].
In the case of `CC1(C)OC(=O)C(=CNc2ncccn2)C(=O)O1`, the AC50 is reported as 0.0158 µM [falling, full curve].
In the case of `O=C(Nc1ccc(N2CCN(C(=O)c3ccccc3)CC2)c(Cl)c1)c1ccco1`, the AC50 is reported as 25.1 µM [falling, single point].
With `Nc1nc2ccccc2n1/N=C/c1ccc(-c2ccccc2)o1` the AC50 was 0.2 µM [falling, full curve].
With `CN(C(=O)c1ccc2c(c1)OCO2)C1(C(=O)NC2CCCCC2)CCCCC1` the AC50 was 10 µM [rising, single point].
With `CC(=NC1CCCCC1)C1=C(O)c2ccccc2C1=O` the AC50 was 15.8 µM [rising, single point].
With `Cc1ccc2[nH]c(C)c(CN(C)C3CCN(C)CC3)c(=O)c2c1` the AC50 was 0.398 µM [falling, full curve, poor fit].
With `O=C(Cn1cnc2c(nnn2Cc2ccc(F)cc2)c1=O)N1CCCc2ccccc21` the AC50 was 0.0794 µM [falling, single point].
In the case of `CCSc1nc2c(c(=O)[nH]1)C(c1ccncc1)C(C(=O)OC(C)C)=C(C)N2` (centres undefined), the AC50 is reported as 25.1 µM [rising, single point].
